From paper PMC5383397 come the findings set out here.

For assay [1], the target named is … SENSING 2 fused to the C-terminal fragment of split YFP (FLS2-cYFP) (Arabidopsis thaliana) (UniProt Q9FL28). The assay can be described thus: split reporter; BiFC: nYFP and cYFP fusions (35S promoter) transiently co-expressed in epidermal leaf cells of N. benthamiana together with CFP-tagged RLCK and mRFP/mCherry-tagged receptor; reconstituted YFP imaged by confocal microscopy; steady state, no ligand added.

The target of assay [2] is BRASSINOSTEROID … 1 fused to the C-terminal fragment of split YFP (BRI1-cYFP) (Arabidopsis thaliana) (UniProt O22476). The assay is described as above.

These are yes or no findings as the source states them, for the method shown. Binding seen in cells or lysates may run through a third protein. Some entries that bind do so weakly or less than the wild type.

With “BRASSINOSTEROID … KINASE 1 fused to the N-terminal fragment of split YFP (BSK1-nYFP) (from UniProt Q944A7 1-512) (enzyme)”, the binding result in assay [1] and in assay [2] was “binds” throughout.
